# Results reported in PubChem BioAssay AID1259415 (National Center for Advancing Translational Sciences (NCATS), 2018).
# The whole screen tested about 410,000 compounds, of which about 18,000 (4.4%) were called active. The inconclusive results got no clear call from the source; some entries with a clear call stand among them for comparison. Cut-off read from the data, not from the text of the source: active = activity change below about -60%; inconclusive = no clear call, values can overlap the other calls; inactive = above about -39%.
# Test: qHTS Assay for inhibitors of the human cytomegalovirus (HCMV)
# Conditions: HFF cells, HCMV-luciferase reporter, 72 h; at 57.5 µM; active compounds read low
# Procedure, shortened: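 HFF cells seeded 16 h at 37C, treated with compounds, infected with luciferase-reporter HCMV at MOI 1 PFU/cell; luciferase read at 72 h post infection, normalized to buffer-only and Salinomycin controls.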
# % is set by controls: 0 for no effect and ±100 for the full control effect.
row,SMILES,"activity change, negative = inhibition"
1,CN(C)S(=O)(=O)c1cccc(NC(=O)c2cccc(S(=O)(=O)N3CCCCC3)c2)c1,inconclusive: -46.1%
2,Cc1ccc(OCC(=O)NCC2(N3CCOCC3)CCCCC2)cc1C,active: -60.3%
3,CC(=O)Nc1ccc(-c2nnc(SCc3c(C)cc(C)cc3C)n2C)cc1,inconclusive: -54.5%
4,Cc1cc(C)n2c(Nc3c(C)cccc3C)c(CC(C)C)nc2n1,inconclusive: -47.2%
5,CCOC(=O)CC1C(=O)NC2CCCCC2N1C(=O)Nc1ccc(Cl)cc1 (stereo not drawn),inactive: 86.9%
6,COc1cc(NC(=S)NCc2cccnc2)c(OC)cc1Cl,inconclusive: -45%
7,Cc1ccc(C(C)NC(=O)/C(C#N)=C\c2c(C)[nH]c3ccccc23)cc1 (stereo not drawn),active: -60.5%
8,COc1cc(CNCCSc2nnnn2C)cc(Br)c1OCc1ccc(F)cc1,inactive: -5.86%
9,Cc1ccc(NC(=O)C2CCCN2S(=O)(=O)c2ccc3nc(-c4ccccc4)[nH]c3c2)cc1F (stereo not drawn),active: -84.4%
10,COCCNC(=O)C1(C)CCCN(Cc2cc(-c3ccccc3)n(C)n2)C1 (stereo not drawn),inactive: 10.1%
11,O=C1/C(=C/c2cccc(O)c2)SC(=S)N1CC1CCCO1 (stereo not drawn),inconclusive: -44.8%
12,COc1ccc(Cl)cc1C(=O)NCCCSc1ccccc1,inconclusive: -52.9%
13,C#CCN(C[C@H]1[C@H](OC(=O)NCC2CCCCC2)[C@H](OC(=O)NCC2CCCCC2)C[C@@H](C(=O)OC)[C@H]1C(=O)OC)S(=O)(=O)c1ccc(C)cc1,inactive: -8.3%
14,COc1cccc(-c2ccc(NC(=O)C3CCCN(Cc4cnc(C)n4C)C3)cc2)c1 (stereo not drawn),inconclusive: -47.5%
15,COc1cc(NC(=O)COC(=O)C2CC(O)CN2S(=O)(=O)c2ccc(Cl)cc2)c(C)cc1[N+](=O)[O-] (stereo not drawn),inconclusive: -48.4%
16,CCOc1ccc(C(=O)NCC(=O)OCc2c(F)cccc2Cl)cc1OCC,inconclusive: -44.3%
17,CCOC(=O)N1CCN(c2nc3c(C)cccn3c(=O)c2C=O)CC1,inactive: -23%
18,O=C(c1nc2ccc(Cl)cn2c1CNCCn1ccnc1)N1CCCCCCC1,inconclusive: -48.8%
19,COc1ccc(NC(=O)c2cc(S(=O)(=O)NCC3COc4ccccc4O3)ccc2F)cc1 (stereo not drawn),inconclusive: -57.5%
20,OCC(Cc1ccccc1)NCc1ccccc1C(F)(F)F (stereo not drawn),inactive: 10.4%
21,Cc1ccc(S(=O)(=O)Oc2ccc(/C=N/NC(=O)c3cccnc3)cc2)cc1,inconclusive: -57.6%

row,SMILES,"activity change, negative = inhibition"
1,Cc1ccc(S(=O)(=O)N(C(=O)c2ccncc2)c2ccc(OC(=O)c3ccncc3)cc2)cc1,active: -67.5%
2,Cc1ccc(-c2cc(C(=O)N/N=C/C=C/c3ccccc3)n[nH]2)s1,inconclusive: -40.6%
3,CCCc1cc2c(cc1NC(=O)c1ccccc1F)OCO2,inconclusive: -47.1%
4,S=C(NCc1ccc2[nH]c3c(c2c1)CCCC3)Nc1ccccc1Cl,inconclusive: -45.4%
5,CCN(CC)C(=O)C1CCCN(c2ccc([N+](=O)[O-])cc2/C=N/NC(=O)c2cccc(Br)c2)C1 (stereo not drawn),inconclusive: -40.2%
6,C=CCN(CC=C)S(=O)(=O)c1ccc(NC(=S)NC(=O)c2ccco2)cc1,inconclusive: -54.1%
7,CC(C)Cc1ccc(C(C)NC(=O)c2ccc(=O)[nH]c2)cc1 (stereo not drawn),inconclusive: -55.5%
8,CCNc1nc(SCCOc2ccc(Br)cc2)nc(N(C)C)n1,inconclusive: -45.8%
9,Cc1ccc(CNC(=O)CN2C(=O)NC(C)(c3cccc(Br)c3)C2=O)cc1 (stereo not drawn),inconclusive: -54.1%
10,Cc1ccc(C(=O)Nc2ccccc2N2CCN(C(=O)C(C)C)CC2)cc1,inconclusive: -45.4%
11,O=C1C(CCCNC(=S)NCc2ccccc2)NC(=S)N1Cc1ccccc1 (stereo not drawn),inconclusive: -56.6%
12,Cc1ccccc1NC(=O)C1CCC(CNS(=O)(=O)c2ccc3c(c2)C(C)(C)C(=O)N3C)CC1 (stereo not drawn),inactive: -1.44%
13,Cn1ncc([N+](=O)[O-])c1C(=O)Nc1cccc2ccccc12,active: -62.9%
14,COC(=O)C1=C(C)NC(=O)/C1=C\c1cc(C)n(-c2c(C)cccc2C)c1C,active: -61.5%
15,O=C(Nc1ccc(N2CCN(C(=O)c3cccs3)CC2)cc1)c1cccnc1Cl,inconclusive: -42.3%
16,Cc1ccc(Cn2nc(C)c(NC(=O)c3cc(-c4ccc(F)cc4)on3)c2C)cc1,inconclusive: -45%
17,Cn1c(N)c(Sc2ccc(F)cc2)c(=O)n(C)c1=O,inconclusive: -56.9%
18,Cc1nn(C(=O)c2ccccc2)c(C)c1Sc1ccc(Cl)cc1,active: -74.4%
19,O=C1CC(N2CCN(c3ccc(F)cc3)CC2)C(=O)N1c1ccc2c(c1)OCO2 (stereo not drawn),inconclusive: -51.2%
20,Cc1c(C)c2ccc(O[C@@H]3O[C@H](CO)[C@H](O)[C@H](O)[C@H]3O)cc2oc1=O,inactive: 8.82%
21,CCN(CC(=O)NCc1cccs1)C(=O)c1ccc(OC)c(S(=O)(=O)N2CCOCC2)c1,inconclusive: -45.6%

# Quoted from the listing.
# CC(=O)Nc1ccc(-c2nnc(SCc3c(C)cc(C)cc3C)n2C)cc1 | activity change, negative = inhibition: inconclusive: -54.5%
# CN(C)S(=O)(=O)c1cccc(NC(=O)c2cccc(S(=O)(=O)N3CCCCC3)c2)c1 | activity change, negative = inhibition: inconclusive: -46.1%
# Cc1ccc(Cn2nc(C)c(NC(=O)c3cc(-c4ccc(F)cc4)on3)c2C)cc1 | activity change, negative = inhibition: inconclusive: -45%
# Cc1ccc(C(C)NC(=O)/C(C#N)=C\c2c(C)[nH]c3ccccc23)cc1 (stereo not drawn) | activity change, negative = inhibition: active: -60.5%
# CCCc1cc2c(cc1NC(=O)c1ccccc1F)OCO2 | activity change, negative = inhibition: inconclusive: -47.1%

# Carrying on.

row,SMILES,"activity change, negative = inhibition"
1,Cc1ccc(C)c(NC(=O)c2cccc(Oc3ccc([N+](=O)[O-])cc3Cl)c2)c1,inconclusive: -45.3%
2,CC1=C(c2ccc(F)cc2)S(=O)(=O)N=C1N1CCC(C(=O)NCCc2ccco2)CC1,inactive: -5.05%
3,Cc1noc(C)c1CSc1ccccc1C(=O)N(C)CC(=O)Nc1cccc(F)c1,inactive: -0.507%
4,COc1cc(/C=C/C(=O)Nc2ccc(C)cc2)cc(OC)c1OC,inactive: -38.2%
5,COC(=O)CN(c1ccccn1)S(=O)(=O)c1ccccc1,inactive: -7.87%
6,CCc1ccc(NC(=O)C2CCCN(S(=O)(=O)c3ccc4c(c3)CCCN4C(C)=O)C2)cc1 (stereo not drawn),inconclusive: 0%
7,O=C1C(Nc2ccccc2)=C(NS(=O)(=O)c2ccccc2)C(=O)c2ccccc21,inconclusive: -40.5%
8,COc1ccc(C(=O)N2CC(=O)Nc3ccc(C)cc3C2c2ccccc2)c(OC)c1 (stereo not drawn),inactive: 11.8%
9,COc1ccc2nc3ccccc3nc2c1NC(=O)c1ccc(Cl)cc1Cl,inconclusive: -42.3%
10,COc1ccc(C(=O)C(Cc2cc(C(C)=O)ccc2OC)N2CCCC2)cc1 (stereo not drawn),inconclusive: -42.6%
11,CCOC(=O)c1cc(CC)sc1NC(=O)Cc1ccsc1,inconclusive: -43.7%
12,CCOc1cc(-c2nnc(SCC(=O)NCc3ccccc3)nc2-c2ccc(OC)c(OCC)c2)ccc1OC,active: -74.5%
13,COc1ccc2cc(CN(CCc3ccccc3)Cc3nnnn3Cc3ccco3)c(=O)[nH]c2c1,inconclusive: -56.7%
14,O=C(CN1C(=O)c2ccccc2C1=O)NCCc1c[nH]c2ccc(Cl)cc12,inconclusive: -46.9%
15,N/C(=N\OC(=O)COc1ccc([N+](=O)[O-])cc1)c1cccnc1,inconclusive: -54.7%
16,Cc1ccc(-c2csc3ncnc(Oc4ccc5c(C)cc(=O)oc5c4)c23)cc1,inconclusive: -53.8%
17,Cc1cc2nc(N)sc2cc1C,inactive: 11.9%
18,O=C1NC(Cc2ccccc2)c2nc3cc(F)ccc3c(=O)n2-c2ncccc21 (stereo not drawn),inactive: -14.8%
19,CN(C)C=Nc1ncc2c([nH]c3ccccc32)c1C#N,inconclusive: -44.5%
20,Cc1cc(C)c(NC(=O)c2cc(=O)c3ccccc3o2)c(C)c1,inconclusive: -41.1%
21,COc1cc(OC)cc(C(=O)Nc2ccc(Br)cc2C(=O)c2ccccc2)c1,inconclusive: -42.1%

row,SMILES,"activity change, negative = inhibition"
1,CC1CCCN(S(=O)(=O)c2ccc(NC(=O)C3CC(=O)N(c4ccccc4)C3)cc2)C1 (stereo not drawn),inconclusive: -49.8%
2,Cn1c(CO)cnc1-c1ccccc1,inactive: -11%
3,COc1ccc(CCNC(=O)C2CCN(C(=O)NC3CCCCC3)CC2)cc1,inactive: 8.37%
4,O=C(CSc1nncn1-c1ccccn1)Nc1ccccc1Cl,inconclusive: -43.5%
5,COc1cc(NC(=O)CSc2nc3[nH]ncc3c(=O)n2-c2ccc(Cl)cc2)cc(OC)c1,inconclusive: -45.5%
6,CCCCc1nnc(NC(=O)CSc2nc(O)c(-c3ccccc3)c(=O)[nH]2)s1,inconclusive: -46.5%
7,CCOC(=O)c1ccc(N2C(=O)CC(N3CCC(C#N)(c4ccccc4)CC3)C2=O)cc1 (stereo not drawn),inactive: -0.289%
8,O=C(c1ccc(S(=O)(=O)N2CCOCC2)cc1)N1CCN(c2cccc(Cl)c2)CC1,inactive: 11.9%
9,COc1ccc(-c2cc3c(=O)n(CC(=O)NCCCN4CCN(Cc5ccccc5)CC4)ncn3n2)cc1,inactive: -26.7%
10,Cc1cccc(OCC(=O)NCC2(N3CCN(C)CC3)CCCCC2)c1C,inconclusive: -45%
11,CCN(c1ccccc1)S(=O)(=O)c1ccc(Cl)c(C(=O)N2CCCC2)c1,inactive: -30.7%
12,CCCCN(C)Cc1cc(=O)oc2cc3c(cc12)CCCC3,inactive: -11.8%
13,COc1ccc(C(C(=O)NCc2ccc(F)cc2)N(Cc2cccnc2)C(=O)c2snc(C(N)=O)c2N)cc1 (stereo not drawn),inconclusive: -46%
14,O=C(Nc1cccc([N+](=O)[O-])c1)NN1CCCCCC1,inconclusive: -51.1%
15,O=C(NNC1=C(C(=O)C(F)(F)F)CCC1)c1ccc(Br)cc1,inconclusive: -45.3%
16,CCCCN(C(=O)CSc1nncn1-c1ccccc1)c1c(N)n(Cc2ccccc2)c(=O)[nH]c1=O,active: -61.7%
17,O=C(CNc1cccc(C(F)(F)F)c1)Nc1cccc(S(=O)(=O)N2CCCC2)c1,inconclusive: -43.4%
18,O=C(CN1CCCc2ccccc21)N/N=C/c1ccc(O)cc1O,inconclusive: -57.7%
19,COc1ccc(NC(=O)C2CC(=O)N(c3ccccc3F)C2)cc1S(=O)(=O)N1CCCCC1 (stereo not drawn),inactive: -24.5%
20,CCOc1ccc(CCNC(=O)COC(=O)/C=C/c2ccccc2)cc1OCC,active: -86.8%
